Data as given in PubChem BioAssay AID624297 (National Center for Advancing Translational Sciences (NCATS), 2012).
In all, about 340,000 compounds went through this assay and about 6,200 (1.8%) were called active. This list was built around the results that the source calls inconclusive (neither active nor inactive); the mix of calls is not that of the screen. Calls follow the shape of the dose curve; as a rule, active = well fitted activation curve with a large enough effect; inconclusive = small, poorly fitted or top-dose-only effect; inactive = no such curve, though single readings can be large or run the other way. Where the call is inconclusive, the potency comes from a doubtful curve fit.

Test: A quantitative high throughput screen for small molecules that induce DNA re-replication in SW480 colon adenocarcinoma cells. Also: nearly all actives have a fitted effect of over 55% in size. As to re-replication activation: % of control where 0% means no effect.
Conditions: Hoechst DNA content imaging, 48 h; re-replication activation: at 46.1 µM (top of the series) unless noted
Summary of the method: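 Compounds, transferred as 23 nL by pin tool, were incubated with cells for 48 hr; DNA content per nucleus was then quantified by Hoechst staining and fluorescence plate imaging.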
Potency is read from the fitted curve at half-maximal effect.

SMILES | Potency | re-replication activation
CCOC(=O)Oc1ccc(C(=O)OCCCN(C)C)cc1OC | inconclusive: 6.51 µM [activator, single point] | –
CC(=O)c1cccc(NC(=O)COC(=O)c2ccc3c(c2)OCO3)c1 | inconclusive: 20.6 µM [activator, single point] | –
CCN(Cc1ccccc1)C(=O)CSc1nncn1C | inconclusive: 0.0184 µM [activator, full curve, poor fit] | –
COc1ccccc1N1CCN(CC(O)COc2ccc3c(c2)CCC3)CC1 (centres undefined) | inconclusive: 29.1 µM [activator, partial curve, poor fit] | –
COc1ccccc1COCC(O)CNCCc1ccc(C(F)(F)F)cc1 (centres undefined) | inconclusive: 20.6 µM [activator, single point] | –
Cc1ccc(C(=O)NNC(=O)C2CCN(c3ncccn3)CC2)cc1 | – | inactive: -18%
COc1ccc2oc3ccccc3c(=O)c2c1 | inconclusive: 6.51 µM [activator, single point] | –
Nc1nc(NCc2ccco2)nc(Nc2ccc(F)cc2)c1[N+](=O)[O-] | inconclusive: 4.61 µM [activator, single point] | –
Cc1ccc(S(=O)(=O)c2c(C)cc(C)nc2Oc2cccc(C)c2C)cc1 | inconclusive: 32.6 µM [activator, partial curve, poor fit] | –
CCCc1cc(=O)n2[nH]c(C)c(-c3ccc(OC)cc3)c2n1 | – | inactive: -3.82%
COc1ccc(C(C(O)C(=O)c2c[nH]c3ccccc23)N2CCN(c3ccccc3)CC2)cc1 (centres undefined) | inconclusive: 32.6 µM [activator, partial curve, poor fit] | –
CC(c1ccccc1C(=O)O)c1cc(F)cc2ccccc12 (centres undefined) | inconclusive: 29.1 µM [activator, single point] | –
O=C(O)c1ccc(N/N=C/c2cccc3nccnc23)cc1 | inconclusive: 18.4 µM [activator, single point] | –
Cc1ccc(C(=O)NCCc2nnc3ccc(SCC(=O)Nc4ccccc4F)nn23)cc1 | – | inactive: 16.1%
Cc1ccc(S(=O)(=O)Nc2cccc(-c3ccc(N4CCCCCC4)nn3)c2)cc1C | inconclusive: 5.8 µM [activator, full curve, poor fit] | –
Cn1c2c(c(=O)n(C)c1=O)C(NS(=O)(=O)c1ccccc1)(C(F)(F)F)C(=O)N2 (centres undefined) | inconclusive: 0.731 µM [activator, full curve, poor fit] | –
CCN(CC)CCCNC(=S)N1CCN(c2nc3ccccc3n2CC)CC1 | inconclusive: 23.1 µM [activator, single point] | –
C/C(=N\NC(=S)NC(C)C)c1ccc(Cl)c([N+](=O)[O-])c1 | – | inactive: -0.0441%
COc1ccc(/[N+]([O-])=C/c2ccoc2)cc1 | – | inactive: -4.56%
COc1cc2c3c(c1)C(C)CC(C)(C)N3C(=O)C2=O (centres undefined) | inconclusive: 29.1 µM [activator, single point] | –
Cc1nnc(NC(=O)C(C)Sc2nnc(CNC(=O)c3ccccc3F)n2C)s1 (centres undefined) | inconclusive: 0.103 µM [activator, partial curve, poor fit] | –
Cc1cc(=O)oc2cc3c(cc12)OCCN3 | inconclusive: 13 µM [activator, single point] | –
COc1ccc(N2C(=O)c3ccccc3NC2c2ccc(OC)c(Cn3nnc4ccccc43)c2)cc1 (centres undefined) | inconclusive: 16.4 µM [activator, single point] | –

Fetched by structure from the list above, 2 records:
SMILES | Potency | re-replication activation
Cc1ccc(S(=O)(=O)Nc2cccc(-c3ccc(N4CCCCCC4)nn3)c2)cc1C | inconclusive: 5.8 µM [activator, full curve, poor fit] | –
CC(c1ccccc1C(=O)O)c1cc(F)cc2ccccc12 (centres undefined) | inconclusive: 29.1 µM [activator, single point] | –

Remaining list, next part

SMILES | Potency | re-replication activation
CCOC(=O)Cn1c(COc2ccccc2OC)[n+](C)c2ccccc21 | inconclusive: 29.1 µM [activator, partial curve, poor fit] | –
O=[N+]([O-])c1cccnc1Oc1ccc(F)cc1 | inconclusive: 29.1 µM [activator, single point] | –
O=C(Nc1ccc(C(=O)N2CCOCC2)cc1)C1CC1 | inconclusive: 2.06 µM [activator, partial curve, poor fit] | –
CN(C)CCNc1ncnc2oc(-c3ccccc3)c(-c3ccccc3)c12 | inconclusive: 29.1 µM [activator, single point] | –
Cc1nc(Cl)c2c(n1)NC1=C(O2)C(=O)CCC1 | inconclusive: 11.6 µM [activator, single point] | –
Cc1ccc(S(=O)(=O)N2CCCC(C(=O)NC3CCCC3)C2)cc1Cl (centres undefined) | – | inactive: -5.92%
Cc1cnc(C(=O)N2CCCC(N3CCN(c4ccccc4F)CC3)C2)cn1 (centres undefined) | inconclusive: 29.1 µM [activator, single point] | –
CCC(C)(C)n1nnnc1C(c1ccc(O)c(OC)c1)N1CCN(c2nc3ccccc3s2)CC1 (centres undefined) | inconclusive: 18.4 µM [activator, partial curve, poor fit] | –
CC(=O)Nc1ccc(S(=O)(=O)NCC(=O)OCC(=O)c2cc(C)n(-c3ccc4c(c3)OCO4)c2C)cc1 | inconclusive: 3.26 µM [activator, full curve, poor fit] | –
CCOC(=O)C(NC(=O)NCc1ccc(F)cc1)(OCC)C(F)(F)F (centres undefined) | inconclusive: 20.6 µM [activator, single point] | –
Cc1ccc(-c2nc(NC(=O)CSc3ncn[nH]3)ns2)cc1 | inconclusive: 23.1 µM [activator, single point] | –
Cc1cccc(C)c1OCC(=O)OC/C(O)=C(\C#N)c1nc2ccccc2[nH]1 | inconclusive: 32.6 µM [activator, partial curve, poor fit] | –
COc1ccc(OC)c(CC(=O)N2CCc3cc(OC)c(OC)cc3C2)c1 | – | inactive: 18.7%
CCOC(=O)c1c(S(=O)(=O)NCC2CCN(Cc3cccc(F)c3)CC2)c(C)n(C)c1C | inconclusive: 0.259 µM [activator, full curve, poor fit] | –
O=c1c2ccc(Cl)cc2nc2n1CC/C2=C\c1cccc(O)c1 | inconclusive: 18.4 µM [activator, partial curve, poor fit] | –
COC(=O)c1cc(S(=O)(=O)NCCc2ccc(C)cc2)c[nH]1 | – | inactive: -5.36%
O=[N+]([O-])CC(c1ccc(F)cc1)c1c[nH]c2ccccc12 (centres undefined) | inconclusive: 29.1 µM [activator, single point] | –
Cc1ccc(-n2nc3c(=O)n(CC(=O)NCc4ccc(C)o4)nc(C)c3c2C)cc1 | inconclusive: 18.4 µM [activator, single point] | –
COc1ccccc1NC(=S)NN1CCN(C)CC1 | – | inactive: -5.12%
CCC(C)(C)n1nnnc1C(c1cc2ccc(OC)cc2[nH]c1=O)N1CCc2ccccc2C1 (centres undefined) | inconclusive: 8.2 µM [activator, partial curve] | –
COc1cc(C(=O)OC(C)CN2CCCCC2)cc(OC)c1OC (centres undefined) | inconclusive: 11.6 µM [activator, single point] | –
COc1cc(CN(C)Cc2cc(=O)n3ccsc3n2)ccc1OC(F)F | inconclusive: 29.1 µM [activator, single point] | –
Cc1ccc(C)c(SCC(=O)N(C)CC(=O)Nc2ccc(N3CCOCC3)cc2)c1 | – | inactive: -5.13%

Entries shown so far containing a CF3 group:
SMILES | Potency | re-replication activation
COc1ccccc1COCC(O)CNCCc1ccc(C(F)(F)F)cc1 (centres undefined) | inconclusive: 20.6 µM [activator, single point] | –
Cn1c2c(c(=O)n(C)c1=O)C(NS(=O)(=O)c1ccccc1)(C(F)(F)F)C(=O)N2 (centres undefined) | inconclusive: 0.731 µM [activator, full curve, poor fit] | –
CCOC(=O)C(NC(=O)NCc1ccc(F)cc1)(OCC)C(F)(F)F (centres undefined) | inconclusive: 20.6 µM [activator, single point] | –

The list goes on.

SMILES | Potency | re-replication activation
O=[N+]([O-])c1cc(S(=O)(=O)Nc2ccc(Cl)cc2)ccc1N/N=C/c1ccncc1 | – | inactive: 4.36%
OCCNCc1ccc(OCc2ccc(Cl)cc2Cl)cc1 | active: 4.11 µM | –
COC(C/C=C\C(=O)[C@H](C)OCc1ccccc1)OC | inconclusive: 16.4 µM [activator, partial curve, poor fit] | –
Cc1nn(CC(=O)NNC(=S)Nc2ccccc2)c(C)c1[N+](=O)[O-] | – | inactive: -5.45%
O=C(COc1ccc(S(=O)(=O)NC2CCCCC2)cc1Cl)NCC1CCCO1 (centres undefined) | inconclusive: 0.0461 µM [activator, full curve, poor fit] | –
COc1cccc(NC(=S)NC(=O)/C=C/c2ccc(F)cc2)c1 | inconclusive: 18.4 µM [activator, single point] | –
COc1ccc(C(C(=O)NCC2CCCO2)N(C(=O)CNC(=O)c2cccs2)c2ccc(C)cc2)cc1OC (centres undefined) | – | inactive: -13.2%
CC(C)(C)NC(=O)C(c1ccncc1)N(Cc1ccco1)C(=O)c1ccc(-c2ccccc2)[nH]1 (centres undefined) | inconclusive: 29.1 µM [activator, single point] | –
O=C(NC1CCCCCC1)c1ccc(CS(=O)Cc2ccccc2Cl)o1 (centres undefined) | inconclusive: 3.26 µM [activator, single point] | –
CCNC(=S)N/N=C(\C)c1ccc(Cl)s1 | – | inactive: -0.454%
COc1ccccc1N(C)C(=O)c1cc(S(=O)(=O)N2CCCC2)cn1C | – | inactive: -0.7%
CCCCN(CC)CCCNC(=O)c1cc2c(-c3ccc(OC)c(OC)c3)nn(C)c2s1 | – | inactive: 3.15%
Fc1ccccc1NC(=S)NCCc1cccc(Cl)c1 | – | inactive: -5.86%
CCCCCC1CCC(c2ccc(/C(N)=N/O)cc2)CC1 (centres undefined) | active: 2.31 µM | –
Cc1ccc(S(=O)(=O)Nc2cccc(-n3cnnn3)c2)cc1C | – | inactive: 2.81%
CCOC(=O)C(C)Sc1nc(=O)n2cccc(C)c2n1 (centres undefined) | – | inactive: -9.67%
Cc1oc(-c2ccccc2)cc1C(=O)Nc1cccc(C(=O)O)c1 | – | inactive: -8.91%
COc1ccccc1N1CCN(C(=S)Nc2ccc3nc(N4CCOCC4)cc(C)c3c2)CC1 | inconclusive: 18.4 µM [activator, single point] | –
COc1cc(CNCCO)cc(Br)c1OCc1ccccc1Cl | inconclusive: 29.1 µM [activator, single point] | –
CN(CC(=O)Nc1cccc(F)c1)C(=O)CCc1nc2sc3c(c2c(=O)[nH]1)CCCC3 | inconclusive: 32.6 µM [activator, partial curve, poor fit] | –
COc1cc2sc3cc(NCCCN4CCOCC4)ccc3c(=O)c2cc1OC | inconclusive: 29.1 µM [activator, single point] | –
NC(N)=N/N=C/c1ccc(Cl)c(Cl)c1 | inconclusive: 25.9 µM [activator, single point] | –
Nc1nc(SCc2ccc(Cl)cc2Cl)nc2nc3c(cc12)CCCC3 | inconclusive: 17.8 µM [activator, single point] | –
